Laboratory results: PubChem BioAssay AID1259327 (Drosophila RNAi Screening Center, 2017)

Screen: 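Knock-downs altering cellular ATP with no metal added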
Cell system: Drosophila S2R+ cells
Reagents: long dsRNA against Drosophila genes
Time to read-out: 5 days (water added on day 4, read one day later)
Conditions: water added as vehicle, no metal, one day before read-out
Read-out: 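Total ATP measured by luciferase light, scaled to plate mean, duplicates averaged, then z-scored across plates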
Scale: ATP z-score: higher = more total ATP than typical wells; ATP luminescence: higher = more total ATP
Call rule: 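Called active when the ATP z-score exceeds 1.5 or falls below -1.5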
Meaning of the calls: active = hit: ATP up or down; inactive = no clear ATP change
The deposit covers about 3,100 reagents; shown is a part drawn at random. Of all reagents, 378 (12%) got an active call. 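Hits include both directions; z-score sign shows ATP rise or fall; raw luminescence values are not plate-normalised.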 Entries without a mark were called inactive. Reagents against one gene are numbered here. A plus sign joins genes that one reagent is predicted to hit. No sequences are given here. The record does not give: the amount of reagent.

{"target gene":"scb (scab)","dsRNA no.":1,"ATP z-score, duplicate mean":-0.11,"ATP luminescence, replicate 1 (RLU)":7.05e5,"ATP luminescence, replicate 2 (RLU)":7.57e5}
{"target gene":"scb (scab)","dsRNA no.":2,"ATP z-score, duplicate mean":0.83,"ATP luminescence, replicate 1 (RLU)":7.33e5,"ATP luminescence, replicate 2 (RLU)":6.56e5}
{"target gene":"bves","dsRNA no.":1,"ATP z-score, duplicate mean":-0.12,"ATP luminescence, replicate 1 (RLU)":7.11e5,"ATP luminescence, replicate 2 (RLU)":7.49e5}
{"target gene":"bves","dsRNA no.":2,"ATP z-score, duplicate mean":-0.491,"ATP luminescence, replicate 1 (RLU)":6.69e5,"ATP luminescence, replicate 2 (RLU)":7.11e5}
{"target gene":"Ir93a (Ionotropic receptor 93a)","dsRNA no.":1,"ATP z-score, duplicate mean":1.05,"ATP luminescence, replicate 1 (RLU)":7.88e5,"ATP luminescence, replicate 2 (RLU)":8.38e5}
{"target gene":"Ir93a (Ionotropic receptor 93a)","dsRNA no.":2,"ATP z-score, duplicate mean":0.0645,"ATP luminescence, replicate 1 (RLU)":9.83e5,"ATP luminescence, replicate 2 (RLU)":1.03e6}
{"target gene":"mthl15 (methuselah-like 15)","dsRNA no.":1,"ATP z-score, duplicate mean":0.383,"ATP luminescence, replicate 1 (RLU)":7.79e5,"ATP luminescence, replicate 2 (RLU)":7.89e5}
{"target gene":"mthl15 (methuselah-like 15)","dsRNA no.":2,"ATP z-score, duplicate mean":-0.597,"ATP luminescence, replicate 1 (RLU)":4.28e5,"ATP luminescence, replicate 2 (RLU)":4.21e5}
{"target gene":"out (outsiders)","dsRNA no.":1,"ATP z-score, duplicate mean":0.122,"ATP luminescence, replicate 1 (RLU)":7.56e5,"ATP luminescence, replicate 2 (RLU)":6.81e5}
{"target gene":"out (outsiders)","dsRNA no.":2,"ATP z-score, duplicate mean":-1.02,"ATP luminescence, replicate 1 (RLU)":7.83e5,"ATP luminescence, replicate 2 (RLU)":6.25e5}
{"target gene":"Nmda1 (N-methyl-D-aspartate receptor-associated protein)","dsRNA no.":1,"ATP z-score, duplicate mean":-0.00366,"ATP luminescence, replicate 1 (RLU)":6.64e5,"ATP luminescence, replicate 2 (RLU)":8.00e5}
{"target gene":"Nmda1 (N-methyl-D-aspartate receptor-associated protein)","dsRNA no.":2,"ATP z-score, duplicate mean":0.708,"ATP luminescence, replicate 1 (RLU)":8.75e5,"ATP luminescence, replicate 2 (RLU)":1.00e6}
{"target gene":"ppk12 (pickpocket 12)","dsRNA no.":1,"ATP z-score, duplicate mean":-0.901,"ATP luminescence, replicate 1 (RLU)":5.83e5,"ATP luminescence, replicate 2 (RLU)":6.77e5}
{"target gene":"ppk12 (pickpocket 12)","dsRNA no.":2,"ATP z-score, duplicate mean":"2.64 (active)","ATP luminescence, replicate 1 (RLU)":5.52e5,"ATP luminescence, replicate 2 (RLU)":7.41e5}

An excerpt from above, showing only “ATP luminescence, replicate 2 (RLU)”:
out (outsiders) #1	6.81e5
out (outsiders) #2	6.25e5
Nmda1 (N-methyl-D-aspartate receptor-associated protein) #1	8.00e5

Further records:
{"target gene":"arr (arrow)","dsRNA no.":1,"ATP z-score, duplicate mean":"-1.83 (active)","ATP luminescence, replicate 1 (RLU)":4.40e5,"ATP luminescence, replicate 2 (RLU)":4.67e5}
{"target gene":"arr (arrow)","dsRNA no.":2,"ATP z-score, duplicate mean":0.804,"ATP luminescence, replicate 1 (RLU)":7.43e5,"ATP luminescence, replicate 2 (RLU)":8.64e5}
{"target gene":"asRNA:CR43429 + Impbeta11","dsRNA no.":1,"ATP z-score, duplicate mean":-0.422,"ATP luminescence, replicate 1 (RLU)":5.94e5,"ATP luminescence, replicate 2 (RLU)":5.69e5}
{"target gene":"asRNA:CR43429 + Impbeta11","dsRNA no.":2,"ATP z-score, duplicate mean":-0.703,"ATP luminescence, replicate 1 (RLU)":3.73e5,"ATP luminescence, replicate 2 (RLU)":4.64e5}
{"target gene":"PlexB (Plexin B)","dsRNA no.":1,"ATP z-score, duplicate mean":-1.09,"ATP luminescence, replicate 1 (RLU)":7.92e5,"ATP luminescence, replicate 2 (RLU)":6.83e5}
{"target gene":"hid (head involution defective)","dsRNA no.":1,"ATP z-score, duplicate mean":1.04,"ATP luminescence, replicate 1 (RLU)":9.21e5,"ATP luminescence, replicate 2 (RLU)":1.04e6}
{"target gene":"hid (head involution defective)","dsRNA no.":2,"ATP z-score, duplicate mean":-0.85,"ATP luminescence, replicate 1 (RLU)":3.93e5,"ATP luminescence, replicate 2 (RLU)":4.22e5}
{"target gene":"CG11426","dsRNA no.":1,"ATP z-score, duplicate mean":0.145,"ATP luminescence, replicate 1 (RLU)":9.56e5,"ATP luminescence, replicate 2 (RLU)":8.76e5}
{"target gene":"CG11426","dsRNA no.":2,"ATP z-score, duplicate mean":0.548,"ATP luminescence, replicate 1 (RLU)":9.61e5,"ATP luminescence, replicate 2 (RLU)":9.92e5}
{"target gene":"CG11426","dsRNA no.":3,"ATP z-score, duplicate mean":"1.55 (active)","ATP luminescence, replicate 1 (RLU)":6.05e5,"ATP luminescence, replicate 2 (RLU)":8.19e5}
